The record followed here is PMC8659110 (Molecules, 2021).

Data set [1] in a line: general procedure: Fmoc solid-phase peptide synthesis; Fmoc-Arg(Pbf)-Wang resin; Fmoc-Asp(OtBu)-Wang resin; HBTU/NMM. Particulars: for isolated mass / isolated yield: whole synthesis; for isolated yield: scale of the general procedure 100 μmol.
Data set [2] can be described thus: general procedure: Fmoc solid-phase peptide synthesis; Fmoc-Asp(OtBu)-Wang resin; HBTU/NMM. Particulars: whole synthesis; for isolated yield: scale of the general procedure 100 μmol.

On to NODAGA-K(Cy5)DKPPR, for which, in data set [1], the isolated mass is given as 42 mg and the isolated yield is 27%.

In data set [2], K(Cy5)RPKPD had an isolated mass of 18 mg. For the same substance, the isolated yield in data set [2] (overall) is reported as 15%.

In data set [2], NODAGA-K(Cy5)RPKPD registered an isolated mass of 44 mg and an isolated yield of 28.2%.

In data set [1], H-KDKPPR-OH displayed an isolated mass of 32.5 mg and an isolated yield of 44%.

In data set [1], K(Cy5)DKPPR had an isolated mass of 20 mg. The substance also had an isolated yield in data set [1] (overall) of 16.6%.

The substance ^natGa-NODAGA-K(Cy5)DKPPR showed a step yield in data set [1] (late stage modification step) of 83.17%.
